The data set concerns cytochrome c. In words: QCM-D. To be noted: BSA blocked, PBS (10 mM) with 2 mM CaCl2, pH 7.4, flow 50 uL/min for lipid film assays, assay temperature not stated, single-stranded DNA.

The exact form of at least one protein or probe is not confirmed.

As for “TTTTTTTTTTATCGATAAGCTTCCAGAGCCGTGTCTGGGGCCGACCGGCGCATTGGGTACGTTGTTGCCGTAGAATTCCTGCAGCC [NH2-Apt-cytc]”, for the setting “1 uM aptamer, cyt c (2 uM) covalently bound to MUA, frequency decrease, smaller than with AuNWs, 5'-NH2”, the binding result is recorded as “binds”. Turning to “TTTTTTTTTTATCGATAAGCTTCCAGAGCCGTGTCTGGGGCCGACCGGCGCATTGGGTACGTTGTTGCCGTAGAATTCCTGCAGCC [NH2-Apt-cytc on AuNWs]”, the binding result (cyt c (0.5-10 uM) covalently bound to MUA, bare AuNWs gave no change, 5'-NH2 coupled by EDC/NHS to MUA on gold nanowires, label: gold nanowire) is recorded as “binds”.
